Data reported in patent US20200138969A1 (published 2020).
Results are given in words; binding and its absence hold for the method and conditions named. Some binding calls cover weakened binding; strength is not graded here.

The chains behind the UniProt entries cited, without tags or fusion partners. Where a name states a change or a piece, a line headed by the entry shows the natural chain unless it says otherwise.
UniProt Q9NYJ7: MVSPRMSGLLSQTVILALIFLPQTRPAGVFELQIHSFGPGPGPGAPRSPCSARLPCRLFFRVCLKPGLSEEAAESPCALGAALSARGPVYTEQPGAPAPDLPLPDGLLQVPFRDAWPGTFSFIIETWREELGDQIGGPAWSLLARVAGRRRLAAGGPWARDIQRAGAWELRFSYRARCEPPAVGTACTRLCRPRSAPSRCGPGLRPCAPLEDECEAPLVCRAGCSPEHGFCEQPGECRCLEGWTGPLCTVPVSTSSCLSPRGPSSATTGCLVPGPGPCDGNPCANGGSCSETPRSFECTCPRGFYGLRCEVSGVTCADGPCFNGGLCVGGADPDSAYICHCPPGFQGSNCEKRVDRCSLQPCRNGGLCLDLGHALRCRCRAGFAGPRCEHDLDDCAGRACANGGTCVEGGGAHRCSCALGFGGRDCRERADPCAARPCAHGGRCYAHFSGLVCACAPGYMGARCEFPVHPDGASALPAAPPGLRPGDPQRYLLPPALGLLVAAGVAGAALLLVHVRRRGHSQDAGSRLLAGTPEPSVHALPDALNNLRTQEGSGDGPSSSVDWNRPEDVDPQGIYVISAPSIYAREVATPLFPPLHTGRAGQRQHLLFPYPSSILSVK

B1: SC16.125 (antibody, V domains shown)
VH: DVQLQESGPDLVKPSQSLSLTCTVTGYSITSGYSWHWIRQFPGNKLEWMGYIHYSGSTNYNPSLKSRISITRDTSKNQFFLQFKSVTTEDSATYYCALEGNYDGFAYWGQGTLVTVS
VL: DIQMNQSPSSLSASLGDTITITCHASQNINVWLSWYQQKPGNIPKLLIYKASILHTGVPSRFSGSGSGTGFTLTISSLQPEDIATYSCQQGQSYPYTFGGGTKLEIK
B2: SC16.126 (antibody, V domains shown)
VH: QVQMKESGPGLVAPSQSLSITCTVSGSSLTNYGVHWVRQPPGKGLEWLGVIWAGGSTNYNSALMSRLSISKDNSKSQVFLKMNSLQTDDTAMYYCARDWEGWFAYWGQGTLVTVSA
VL: DIQMNQSPSSLSASLGDTITITCHASQNINVWLSWYQQKPGNIPKLLIYKASNLHTGVPSRFSGSGSGTGFTLTISSLQPEDIATYYCQQGQSYPFTFGSGTKLEIK
B3: SC16.130 (antibody, V domains shown)
VH: EVQLQQSGPELVKPGASVKMSCKASGYTFTSYVMHWVKQKPGQGLEWIGYINPYNDGTEYNEKFKGKATLTSDKSSSTAYMELSSLTSEDSAVYYCARGVYDGYSYFDYWGQGTTLTVSS
VL: DIQLTQSPASLSASVGETVTITCRASGSIHNYLAWYQQKQGKSPQLLVYNAKTLVDGVPSRFSGSGSGTQYSLKINSLQPEDFGYYYCQHFWTTPWTFGGGTKLEIK
B4: SC16.121 (antibody, V domains shown)
VH: EVQLVESGGGLVQPKGSLKLSCAASGFTFNTYAMNWVRQAPGKGLEWVARIRIKSNNYATYYADSVKDRFTISRDDSQNMLYLQMNNLKTEDTAVYYCVRQGYSYDWGPWFAYWGQGTLVTVSA
VL: QIVLTQSPAIMSASPGEKVTITCSASSSVSYMHWFQQKPGTSPKLWIYSTSNLASGVPARFSGSGSGTSYSLTISRMEAEDAATYYCQQRSSYPPTFGGGTKLEIKR
B5: SC16.123 (antibody, V domains shown)
VH: QVALKESGPGILQPSQTLSLTCSFSGFSLSTSGMGVGWIRQPSGKGLEWLAHIWWDDVKRYNPALKSRLTISKDTSSSQVFLKIASVDTADTATYYCARMEDYGSSSYFDFWGHGTTLTVSS
VL: QIVLTQSPAIMSASLGERVTMTCTASSSVSSSYLHWYQQKPGSSPKLWIYSTSNLASGVPARFSGSGSGTSYSLTISSMETEDAATYYCHQYHRSPFTFGSGTKLEIK
B6: SC16.124 (antibody, V domains shown)
VH: EVQLQQSGPELVKPGASVKMSCKASGYTFTSYVMHWVKQKPGQGLEWIGYINPYNDGTKYNEKFKGKATLTSDKSSSTAYMELSSLTSEDSAVYYCARGALYYGNYLGYFDVWGAGTTVTVSS
VL: DIQMTQSPASQSASLGESVTITCLASQTIGTWLAWYQQKPGKSPQLLISAATSLADGVPSRFSGSGSGTKFSFKISSLQAEDFVSYYCQQLYSTPWTFGGGTKLEIK
B7: SC16.132 (antibody, V domains shown)
VH: QVQLKESGPGLVAPSQSLSITCTVSGFSLTDYGVSWIRQPPGKGLEWLGVVWGGGSTYYNSALKSRLSITKDNSKSQVFLKMNSLQTDDTAMYYCAKQRGQYGAYWGQGTLVTVSA
VL: DIQMTQSPASQSASLGESVTITCLASQTIGTWLAWYQQKPGKSPQLLIYAATSLADGVPSRFSGSGSGTKFSFKISSLQAEDFVSYYCQQLYSTPWTFGGGTKLEIK

Target: human DLL3 (delta-like ligand 3), on the cell surface (human) (UniProt Q9NYJ7)
Assay: hybridoma screen: ELISA on immobilized DLL3 or flow cytometry on h293-hDLL3

binding, binds:
B1
B2
B3
B4
B5
B6
B7
